Results from publication PMC11165011.
No constants are given. Whether binding was seen depends on the method and setting. In cells and extracts the contact can be indirect. Some results given as binding are weak or reduced against the parent protein; the word gives no strength. For part of these data: Tags and fused reporters may be left off the sequences shown. Values belong to the substance of their own block, whether it stands above or below them.

Sequences of proteins named here, by UniProt entry; tags and fusion partners are left off. Residues count along the entry.
UniProt P40763: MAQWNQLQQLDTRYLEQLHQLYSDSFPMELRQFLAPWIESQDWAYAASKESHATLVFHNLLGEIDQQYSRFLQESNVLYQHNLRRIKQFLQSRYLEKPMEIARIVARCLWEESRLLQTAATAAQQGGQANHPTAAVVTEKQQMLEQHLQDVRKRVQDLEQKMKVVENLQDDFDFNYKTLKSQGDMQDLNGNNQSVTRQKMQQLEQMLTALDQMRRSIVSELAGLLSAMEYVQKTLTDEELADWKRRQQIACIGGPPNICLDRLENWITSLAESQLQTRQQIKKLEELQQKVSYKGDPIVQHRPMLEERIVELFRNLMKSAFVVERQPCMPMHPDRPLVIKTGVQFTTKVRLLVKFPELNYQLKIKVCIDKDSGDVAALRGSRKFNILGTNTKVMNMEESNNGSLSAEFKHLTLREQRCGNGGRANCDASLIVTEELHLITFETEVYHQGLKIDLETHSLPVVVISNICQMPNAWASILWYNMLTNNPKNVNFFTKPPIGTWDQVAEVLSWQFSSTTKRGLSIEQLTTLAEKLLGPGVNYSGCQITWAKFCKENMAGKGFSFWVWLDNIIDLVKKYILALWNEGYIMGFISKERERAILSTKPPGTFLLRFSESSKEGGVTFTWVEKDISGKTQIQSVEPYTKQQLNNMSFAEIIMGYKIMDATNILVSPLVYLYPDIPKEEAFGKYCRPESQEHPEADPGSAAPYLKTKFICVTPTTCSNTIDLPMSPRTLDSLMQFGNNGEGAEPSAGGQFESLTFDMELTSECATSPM
UniProt P08246, residues 30-267: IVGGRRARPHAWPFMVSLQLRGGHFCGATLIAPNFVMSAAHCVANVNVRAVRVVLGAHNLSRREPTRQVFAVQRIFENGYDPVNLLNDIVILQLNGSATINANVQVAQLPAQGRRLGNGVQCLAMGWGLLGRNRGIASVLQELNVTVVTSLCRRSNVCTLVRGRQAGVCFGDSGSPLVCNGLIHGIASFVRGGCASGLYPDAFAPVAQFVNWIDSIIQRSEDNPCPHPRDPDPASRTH

Tests used:
[1] = target: T1, HA-tagged PRTN3 (Proteinase 3), full length (human) (UniProt P24158); experiment: co-IP; HEK293T cells co-transfected with Flag-STAT3 and HA-PRTN3; lysates precipitated with anti-Flag or anti-HA overnight at 4 °C, protein A/G agarose; immunoblot
T1 sequence: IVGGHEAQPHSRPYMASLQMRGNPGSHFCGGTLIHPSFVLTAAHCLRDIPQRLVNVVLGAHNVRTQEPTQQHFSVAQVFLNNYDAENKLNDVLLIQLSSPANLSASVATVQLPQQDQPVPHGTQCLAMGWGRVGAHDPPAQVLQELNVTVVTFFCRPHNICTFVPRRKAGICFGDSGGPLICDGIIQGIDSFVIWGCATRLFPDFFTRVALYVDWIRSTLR

[2] = target: T2, PRTN3, endogenous in human primary CD34+ cells (human (endogenous in primary CD34+ cells)) (UniProt P24158); experiment: co-IP; lysates of human primary CD34+ cells from cord blood, endogenous proteins; anti-STAT3 or anti-PRTN3; immunoblot
T2 sequence: T1 sequence

[3] = target: STAT3, endogenous in HL60 cells (human (endogenous in HL60)) (UniProt P40763); experiment: co-IP; HL60 cell lysates, endogenous proteins; STAT3 antibody added for immunoprecipitation, anti-NE and anti-CatG antibodies

binding [1]: binds
Substance: Flag-tagged STAT3 (1-770) (from UniProt P40763 1-770)

binding [2]: binds
Substance: STAT3, endogenous in human primary CD34+ cells (from UniProt P40763 1-770)

binding [3]: no binding
Substance: neutrophil elastase (NE), endogenous in HL60 cells (from UniProt P08246 30-267) (enzyme)
